The assay deals with KDR receptor expressed on the endothelium of neovessels of rabbit VX2 tumors (rabbit) (UniProt G1SN50). The experiment in a line: in vivo ultrasound imaging of rabbit VX2 tumors 25 min after injection of targeted microbubbles, free circulating bubbles subtracted.

By UniProt entry, the sequences of proteins in these tests, tags left out. Where a name states a change or a piece, a line headed by the entry shows the natural chain unless it says otherwise. Chains listed by the source or under a name are the forms on record and can include a tag or linker.
KDR receptor expressed on the endothelium of neovessels of rabbit VX2 tumors (G1SN50, form named): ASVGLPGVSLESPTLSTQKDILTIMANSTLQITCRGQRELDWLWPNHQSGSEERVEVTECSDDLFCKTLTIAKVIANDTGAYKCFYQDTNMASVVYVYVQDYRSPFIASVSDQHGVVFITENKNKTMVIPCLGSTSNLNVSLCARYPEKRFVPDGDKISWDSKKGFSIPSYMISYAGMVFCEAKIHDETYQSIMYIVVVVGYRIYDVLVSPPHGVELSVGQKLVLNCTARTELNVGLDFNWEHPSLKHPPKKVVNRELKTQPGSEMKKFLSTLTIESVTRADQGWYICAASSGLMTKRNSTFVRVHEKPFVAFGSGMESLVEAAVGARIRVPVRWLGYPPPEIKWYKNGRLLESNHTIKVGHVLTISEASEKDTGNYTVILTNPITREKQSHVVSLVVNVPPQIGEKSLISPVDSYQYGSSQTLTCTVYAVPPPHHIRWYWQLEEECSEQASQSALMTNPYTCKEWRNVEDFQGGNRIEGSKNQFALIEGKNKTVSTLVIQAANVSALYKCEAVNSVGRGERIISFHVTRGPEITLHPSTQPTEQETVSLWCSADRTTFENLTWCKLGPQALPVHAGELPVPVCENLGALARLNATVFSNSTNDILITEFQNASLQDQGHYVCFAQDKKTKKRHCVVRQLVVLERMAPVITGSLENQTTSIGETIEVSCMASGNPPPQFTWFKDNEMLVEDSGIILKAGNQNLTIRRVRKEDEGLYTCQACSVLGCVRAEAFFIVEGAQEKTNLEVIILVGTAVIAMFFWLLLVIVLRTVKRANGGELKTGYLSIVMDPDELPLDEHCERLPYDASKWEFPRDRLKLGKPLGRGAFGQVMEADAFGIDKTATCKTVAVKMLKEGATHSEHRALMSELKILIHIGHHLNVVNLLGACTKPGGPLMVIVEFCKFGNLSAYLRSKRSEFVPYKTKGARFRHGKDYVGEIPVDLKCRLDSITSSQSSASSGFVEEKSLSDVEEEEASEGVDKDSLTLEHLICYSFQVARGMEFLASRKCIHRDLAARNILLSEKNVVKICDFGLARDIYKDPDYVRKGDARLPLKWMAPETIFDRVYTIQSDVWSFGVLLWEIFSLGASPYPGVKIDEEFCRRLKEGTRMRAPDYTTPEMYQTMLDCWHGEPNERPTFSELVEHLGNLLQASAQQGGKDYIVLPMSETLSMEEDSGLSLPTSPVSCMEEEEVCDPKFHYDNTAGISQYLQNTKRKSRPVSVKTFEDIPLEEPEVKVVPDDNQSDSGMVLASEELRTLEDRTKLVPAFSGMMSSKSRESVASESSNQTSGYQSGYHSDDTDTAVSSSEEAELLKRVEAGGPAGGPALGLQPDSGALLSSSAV

No constants are given. Whether binding was seen depends on the method and setting. Some entries that bind do so weakly or less than the wild type.

Regarding RAQDWYYDEILSMADQLRHAFLSGGGGGK (N-terminal acetyl; C-terminal Lys N6-(DSPE-PEG2000-NH-Glut); C-terminal amide) [monomeric peptide phospholipid conjugate (1)], the binding entry is reported as “binds”.

These data come from patent EP2359864B1, “Targeting Vector-Phospholipid Conjugates” (Bracco Suisse SA, priority 2005, dated 2019).
